# Laboratory results from the supplement of paper PMC8728848.
# The other results are listed elsewhere or left out.
# Tests used:
# Assay in all cases: glycan array binding signal (z-score within array); higher = stronger binding
# Conditions in all cases: glycan notation: IUPAC condensed, linker removed
# [1] = biological target: Gal3S(b1-3)[Fuc(a1-4)]GlcNAc
# In short: (§1)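 Columns mapping to the same glycan were averaged after glycan names were converted to IUPAC-condensed notation. The data come from 3228 arrays in the Consortium for Functional Glycomics database, limited to those with an available protein sequence. Binding is reported as a within-array Z-score averaged across arrays of one protein sequence and across linkers.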
# [2] = biological target: Gal3S(b1-4)Glc
# In short: as §1
# [3] = biological target: Gal3S(b1-4)Glc6S
# In short: as §1
# [4] = biological target: Gal3S(b1-4)GlcNAc
# In short: as §1
# [5] = biological target: Gal3S(b1-4)[Fuc(a1-3)]Glc6S
# In short: as §1
# [6] = biological target: Gal3S(b1-4)[Fuc(a1-3)]GlcNAc
# In short: as §1
# [7] = biological target: Gal3S(b1-4)[Fuc(a1-3)]GlcNAc6S
# In short: as §1
# [8] = biological target: Gal3S4S(b1-4)GlcNAc
# In short: as §1
# [9] = biological target: Gal3S6S(b1-4)GlcNAc
# In short: as §1
# [10] = biological target: Gal3S6S(b1-4)GlcNAc6S
# In short: as §1
# [11] = biological target: Gal4S(b1-4)GlcNAc
# In short: as §1
# [12] = biological target: Gal4S6S(b1-4)GlcNAc
# In short: as §1
# [13] = biological target: Gal6P(b1-4)GlcNAc
# In short: as §1
# [14] = biological target: Gal6S(b1-3)GlcNAc
# In short: as §1
# [15] = biological target: Gal6S(b1-3)GlcNAc6S
# In short: as §1
# [16] = biological target: Gal6S(b1-4)Glc
# In short: as §1
# [17] = biological target: Gal6S(b1-4)Glc6S
# In short: as §1
# [18] = biological target: Gal6S(b1-4)GlcNAc
# In short: as §1
# [19] = biological target: Gal6S(b1-4)GlcNAc6S
# In short: as §1
# [20] = biological target: GalNAc(a1-3)Gal
# In short: as §1
# [21] = biological target: GalNAc(a1-3)GalNAc
# In short: as §1
# [22] = biological target: GalNAc(a1-3)GalNAc(b1-3)Gal(a1-4)Gal(b1-4)Glc
# In short: as §1
# [23] = biological target: GalNAc(a1-3)GalNAc(b1-3)Gal(a1-4)Gal(b1-4)GlcNAc
# In short: as §1
# [24] = biological target: GalNAc(b1-3)Gal
# In short: as §1
# [25] = biological target: GalNAc(b1-3)Gal(a1-4)Gal(b1-4)GlcNAc
# In short: as §1
# [26] = biological target: GalNAc(b1-3)Gal(a1-4)Gal(b1-4)GlcNAc(b1-3)Gal(b1-4)Glc
# In short: as §1
# [27] = biological target: GalNAc(b1-3)Gal(a1-6)Gal(b1-4)Glc
# In short: as §1
# [28] = biological target: GalNAc(b1-3)GalNAc
# In short: as §1
# [29] = biological target: GalNAc(b1-3)GlcNAc
# In short: as §1
# [30] = biological target: GalNAc(b1-4)Gal(b1-4)Glc
# In short: as §1
# [31] = biological target: GalNAc(b1-4)GlcNAc
# In short: as §1
# [32] = biological target: GalNAc(b1-4)GlcNAc(b1-2)Man
# In short: as §1
# [33] = biological target: GalNAc(b1-4)GlcNAc(b1-2)Man(a1-3)[GalNAc(b1-4)GlcNAc(b1-2)Man(a1-6)]Man(b1-4)GlcNAc(b1-4)GlcNAc
# In short: as §1
# [34] = biological target: GalNAc(b1-4)GlcNAc(b1-3)GalNAc(b1-4)GlcNAc
# In short: as §1
# [35] = biological target: GalNAc(b1-4)GlcNAc6S
# In short: as §1
# [36] = biological target: GalNAc(b1-6)GalNAc
# In short: as §1
# [37] = biological target: GalNAc3S(b1-4)GlcNAc
# In short: as §1
# [38] = biological target: GalNAc3S(b1-4)GlcNAc3S
# In short: as §1
# [39] = biological target: GalNAc3S(b1-4)[Fuc(a1-3)]GlcNAc
# In short: as §1
# [40] = biological target: GalNAc4S6S(b1-4)GlcNAc
# In short: as §1
# [41] = biological target: GalNAc6S(b1-4)GlcNAc
# In short: as §1
# [42] = biological target: Glc(a1-4)Glc
# In short: as §1
# [43] = biological target: Glc(a1-4)Glc(a1-4)Glc(a1-4)Glc
# In short: as §1
# [44] = biological target: Glc(a1-6)Glc(a1-6)Glc
# In short: as §1
# [45] = biological target: Glc(a1-6)Glc(a1-6)Glc(a1-6)Glc
# In short: as §1
binder,measurement,setting,value
Epa19 (Candida glabrata) (protein) MGSSHHHHHHSSGLVPRGSHMASSKDPTRFPIGCSPQVLKTQPGLAVKLYSYGHPVPGCSYITYQYPDFPRSGYKKERKLADITGVNGKIDIDLKPNDPCRVLTGHLPSNYNYPDTLTYTNFTMILYGYFQPKVTGYHTFNLEADDLLFMNLGAGNAFDCCKAESTLDNFGNYQSYSLWGSDYAKANITVFLVSGVYYPIRLFYVNRDNNAVIDFSFTTEFDKEKVHDFTSYFFSASDGEQCPGSV,glycan array binding signal (z-score),[1],0.786
same,glycan array binding signal (z-score),[2],-0.076
same,glycan array binding signal (z-score),[3],-0.025
same,glycan array binding signal (z-score),[4],-1.08
same,glycan array binding signal (z-score),[5],0.933
same,glycan array binding signal (z-score),[6],0.047
same,glycan array binding signal (z-score),[7],0.49
same,glycan array binding signal (z-score),[8],-1.09
same,glycan array binding signal (z-score),[9],0.045
same,glycan array binding signal (z-score),[10],1
same,glycan array binding signal (z-score),[11],-1.34
same,glycan array binding signal (z-score),[12],-0.315
same,glycan array binding signal (z-score),[13],-0.144
same,glycan array binding signal (z-score),[14],0.248
same,glycan array binding signal (z-score),[15],-1.01
same,glycan array binding signal (z-score),[16],-0.415
same,glycan array binding signal (z-score),[17],0.414
same,glycan array binding signal (z-score),[18],-0.372
same,glycan array binding signal (z-score),[19],1.08
same,glycan array binding signal (z-score),[20],-0.246
same,glycan array binding signal (z-score),[21],0.221
same,glycan array binding signal (z-score),[22],-0.569
same,glycan array binding signal (z-score),[23],0.017
same,glycan array binding signal (z-score),[24],-0.489
same,glycan array binding signal (z-score),[25],-0.192
same,glycan array binding signal (z-score),[26],-0.123
same,glycan array binding signal (z-score),[27],-0.525
same,glycan array binding signal (z-score),[28],-0.712
same,glycan array binding signal (z-score),[29],-0.112
same,glycan array binding signal (z-score),[30],0.655
same,glycan array binding signal (z-score),[31],0.542
same,glycan array binding signal (z-score),[32],-1.37
same,glycan array binding signal (z-score),[33],-0.525
same,glycan array binding signal (z-score),[34],0.743
same,glycan array binding signal (z-score),[35],0.606
same,glycan array binding signal (z-score),[36],-0.738
same,glycan array binding signal (z-score),[37],0.47
same,glycan array binding signal (z-score),[38],0.771
same,glycan array binding signal (z-score),[39],-0.282
same,glycan array binding signal (z-score),[40],1.04
same,glycan array binding signal (z-score),[41],-0.279
same,glycan array binding signal (z-score),[42],-0.715
same,glycan array binding signal (z-score),[43],0.084
same,glycan array binding signal (z-score),[44],0.064
same,glycan array binding signal (z-score),[45],0.03

# Two entries picked at random from the list so far, as already listed:
binder,measurement,setting,value
Epa19 (Candida glabrata) (protein) MGSSHHHHHHSSGLVPRGSHMASSKDPTRFPIGCSPQVLKTQPGLAVKLYSYGHPVPGCSYITYQYPDFPRSGYKKERKLADITGVNGKIDIDLKPNDPCRVLTGHLPSNYNYPDTLTYTNFTMILYGYFQPKVTGYHTFNLEADDLLFMNLGAGNAFDCCKAESTLDNFGNYQSYSLWGSDYAKANITVFLVSGVYYPIRLFYVNRDNNAVIDFSFTTEFDKEKVHDFTSYFFSASDGEQCPGSV,glycan array binding signal (z-score),[33],-0.525
same,glycan array binding signal (z-score),[3],-0.025
